Reference: US20260076988A1 (The Cleveland Clinic Foundation, priority 2019, published 2026)
No dose or concentration is given here for some results.

Test system: NCI60 panel of cancer cell lines
Assay: Correlation of GI50 with pyrimidine metabolism enzyme expression and doubling time, NCI60 panel
Type: cell-based

Nc1ncn([C@@H]2O[C@H](CO)[C@@H](O)[C@H]2O)c(=O)n1 [5-azacytidine]
correlation coefficient r, growth inhibition vs cell doubling-time: 0.29
